Measured values as given in ChEMBL document CHEMBL4303122, “Identification of potential treatments for COVID-19 through artificial intelligence-enabled phenomic analysis of human cells infected with SARS-CoV-2” (2020).
The full ranking holds about 1,600 compounds; the median of “Hit score” is about 0.13, and the highest 2% start at about 0.46. The list shows a part of the results.

test system: SARS-CoV-2; assay: Antiviral activity against SARS-CoV-2 (USA-WA1/2020 strain) measured by imaging in HRCE cells at MOI 0.4 after 96 hrs (reported as hit score from 0-1 for on-disease vs off-disease activity: scores >0.6 considered hits); format: functional, Homo sapiens

SMILES	Hit score
CC(C)(C)N1CCC(c2ccccc2)(c2ccccc2)CC1 [BUDIPINE]	0.4384
NC(=O)c1ccccc1O [SALICYLAMIDE]	0.3054
COc1ccc(C(=O)CCC(=O)O)c2ccccc12 [MENBUTONE]	0.04313
CS(=O)(=O)c1ccc(C(=O)Nc2ccc(Cl)c(-c3ccccn3)c2)c(Cl)c1 [VISMODEGIB]	0.5244
Sc1ncnc2nc[nH]c12 [MERCAPTOPURINE ANHYDROUS]	0.2212
COc1ccc(CC(C)NCC(O)c2ccc(O)c(NC=O)c2)cc1 (stereo not given) [FORMOTEROL]	-0.2297
CC(C)C[C@H](NC(=O)[C@H](Cc1ccccc1)NC(=O)c1cnccn1)B(O)O [BORTEZOMIB]	-0.9654
CO/N=C(\C(=O)N[C@@H]1C(=O)N2C(C(=O)O)=C(CSc3nc(=O)c(O)nn3C)CS[C@H]12)c1csc(N)n1 [CEFTRIAXONE]	0.07003
COCCCC/C(=N\OCCN)c1ccc(C(F)(F)F)cc1 [FLUVOXAMINE]	0.0531
CC(C)C(=O)OC[C@@]1(N=[N+]=[N-])O[C@@H](n2ccc(N)nc2=O)[C@H](OC(=O)C(C)C)[C@@H]1OC(=O)C(C)C [BALAPIRAVIR]	0.3201
COC(=O)[C@H](c1ccccc1Cl)N1CCc2sccc2C1 [CLOPIDOGREL]	0.07177
NC(=O)N[C@@H](CCC(=O)O)C(=O)O [CARGLUMIC ACID]	0.1387
Cl.Nc1ccn([C@@H]2O[C@H](CO)[C@@H](O)C2(F)F)c(=O)n1 [GEMCITABINE HYDROCHLORIDE]	0.2972
Clc1ccc(C(OCCN2CCCCC2)c2ccccc2)cc1 (stereo not given) [CLOPERASTINE]	0.5618
CC/C=C\C/C=C\C/C=C\C/C=C\C/C=C\CCCC(=O)O [ICOSAPENT]	0.1484
CO[C@H]1/C=C/O[C@@]2(C)Oc3c(C)c(O)c4c(O)c(c(/C=N/N5CCN(C)CC5)c(O)c4c3C2=O)NC(=O)/C(C)=C\C=C\[C@H](C)[C@H](O)[C@@H](C)[C@@H](O)[C@@H](C)[C@H](OC(C)=O)[C@@H]1C [RIFAMPIN]	0.08736
CCCSc1ccc2[nH]c(NC(=O)OC)nc2c1 [ALBENDAZOLE]	0.1188
CCc1ccc(CCOc2ccc(CC3SC(=O)NC3=O)cc2)nc1 (stereo not given) [PIOGLITAZONE]	0.08808
Cc1ccc(N(CC2=NCCN2)c2cccc(O)c2)cc1 [PHENTOLAMINE]	0.06841
CNC[C@@H](O)c1ccc(O)c(O)c1 [L-ADRENALINE]	-0.1051

A stretch from further up, as a working copy:
SMILES	Hit score
COc1ccc(CC(C)NCC(O)c2ccc(O)c(NC=O)c2)cc1 (stereo not given) [FORMOTEROL]	-0.2297
CC(C)C[C@H](NC(=O)[C@H](Cc1ccccc1)NC(=O)c1cnccn1)B(O)O [BORTEZOMIB]	-0.9654
CO/N=C(\C(=O)N[C@@H]1C(=O)N2C(C(=O)O)=C(CSc3nc(=O)c(O)nn3C)CS[C@H]12)c1csc(N)n1 [CEFTRIAXONE]	0.07003
COCCCC/C(=N\OCCN)c1ccc(C(F)(F)F)cc1 [FLUVOXAMINE]	0.0531
